Data taken from article PMC4793267.
Results are given in words; binding and its absence hold for the method and conditions named. Binding seen in cells or lysates may run through a third protein. Some results given as binding are weak or reduced against the parent protein; the word gives no strength. Where a sequence is shown, tags or fusion partners need not be part of it.

Chains of the proteins cited; added tags and fusions are not shown. Lines headed by an entry give the natural chain unless they say otherwise; changes in a name come on top. A line that says so, or that is headed by a name, gives the form on record, which may keep a tag or linker.
UniProt O18381: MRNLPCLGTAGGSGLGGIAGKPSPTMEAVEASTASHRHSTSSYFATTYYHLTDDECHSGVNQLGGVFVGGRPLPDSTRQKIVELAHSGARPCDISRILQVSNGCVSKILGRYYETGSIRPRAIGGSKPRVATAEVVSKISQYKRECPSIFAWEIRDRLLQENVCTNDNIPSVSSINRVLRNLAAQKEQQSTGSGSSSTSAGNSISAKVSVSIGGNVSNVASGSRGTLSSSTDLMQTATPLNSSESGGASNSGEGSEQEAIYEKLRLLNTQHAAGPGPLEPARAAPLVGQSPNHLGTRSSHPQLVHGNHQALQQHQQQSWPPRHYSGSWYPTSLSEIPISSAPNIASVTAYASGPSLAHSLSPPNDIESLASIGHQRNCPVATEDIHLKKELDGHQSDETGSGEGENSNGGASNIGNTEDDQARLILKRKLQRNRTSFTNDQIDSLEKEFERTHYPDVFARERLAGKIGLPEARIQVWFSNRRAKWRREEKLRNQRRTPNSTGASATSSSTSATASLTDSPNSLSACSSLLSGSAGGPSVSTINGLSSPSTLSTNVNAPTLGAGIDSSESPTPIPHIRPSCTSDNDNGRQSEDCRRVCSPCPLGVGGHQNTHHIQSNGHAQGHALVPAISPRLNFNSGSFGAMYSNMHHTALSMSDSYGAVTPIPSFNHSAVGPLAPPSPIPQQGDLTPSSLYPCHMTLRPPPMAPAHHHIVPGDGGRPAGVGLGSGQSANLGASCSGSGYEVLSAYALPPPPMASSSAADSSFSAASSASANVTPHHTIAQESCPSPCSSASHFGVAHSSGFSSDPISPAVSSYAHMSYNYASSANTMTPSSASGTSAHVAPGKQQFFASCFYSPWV
HA-tagged Eyeless (Ey) (O18381, form named): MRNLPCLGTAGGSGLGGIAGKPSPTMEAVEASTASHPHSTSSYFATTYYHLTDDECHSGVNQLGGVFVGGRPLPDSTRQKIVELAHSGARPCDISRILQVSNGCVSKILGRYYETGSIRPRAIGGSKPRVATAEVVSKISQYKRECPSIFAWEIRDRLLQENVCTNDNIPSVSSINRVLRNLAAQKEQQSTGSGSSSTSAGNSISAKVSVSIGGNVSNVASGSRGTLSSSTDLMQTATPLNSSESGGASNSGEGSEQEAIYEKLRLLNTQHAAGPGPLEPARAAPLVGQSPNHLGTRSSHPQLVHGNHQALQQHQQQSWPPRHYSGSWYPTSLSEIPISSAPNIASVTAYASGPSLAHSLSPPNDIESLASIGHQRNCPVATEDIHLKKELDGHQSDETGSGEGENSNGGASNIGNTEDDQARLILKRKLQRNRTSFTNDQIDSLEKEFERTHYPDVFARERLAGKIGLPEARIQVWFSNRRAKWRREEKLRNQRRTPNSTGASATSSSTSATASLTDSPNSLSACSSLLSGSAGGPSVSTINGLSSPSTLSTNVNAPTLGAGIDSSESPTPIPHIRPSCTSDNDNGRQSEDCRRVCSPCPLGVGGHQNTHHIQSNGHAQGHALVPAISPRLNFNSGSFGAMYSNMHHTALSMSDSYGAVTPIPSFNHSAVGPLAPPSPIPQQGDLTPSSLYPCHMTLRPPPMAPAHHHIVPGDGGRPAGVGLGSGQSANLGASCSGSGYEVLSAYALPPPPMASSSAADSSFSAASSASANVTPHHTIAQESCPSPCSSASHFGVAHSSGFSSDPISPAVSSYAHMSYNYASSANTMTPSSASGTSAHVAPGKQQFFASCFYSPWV

T1: Flag-tagged Eyes absent (Eya), wild type (Drosophila) (UniProt Q05201)
T1 sequence: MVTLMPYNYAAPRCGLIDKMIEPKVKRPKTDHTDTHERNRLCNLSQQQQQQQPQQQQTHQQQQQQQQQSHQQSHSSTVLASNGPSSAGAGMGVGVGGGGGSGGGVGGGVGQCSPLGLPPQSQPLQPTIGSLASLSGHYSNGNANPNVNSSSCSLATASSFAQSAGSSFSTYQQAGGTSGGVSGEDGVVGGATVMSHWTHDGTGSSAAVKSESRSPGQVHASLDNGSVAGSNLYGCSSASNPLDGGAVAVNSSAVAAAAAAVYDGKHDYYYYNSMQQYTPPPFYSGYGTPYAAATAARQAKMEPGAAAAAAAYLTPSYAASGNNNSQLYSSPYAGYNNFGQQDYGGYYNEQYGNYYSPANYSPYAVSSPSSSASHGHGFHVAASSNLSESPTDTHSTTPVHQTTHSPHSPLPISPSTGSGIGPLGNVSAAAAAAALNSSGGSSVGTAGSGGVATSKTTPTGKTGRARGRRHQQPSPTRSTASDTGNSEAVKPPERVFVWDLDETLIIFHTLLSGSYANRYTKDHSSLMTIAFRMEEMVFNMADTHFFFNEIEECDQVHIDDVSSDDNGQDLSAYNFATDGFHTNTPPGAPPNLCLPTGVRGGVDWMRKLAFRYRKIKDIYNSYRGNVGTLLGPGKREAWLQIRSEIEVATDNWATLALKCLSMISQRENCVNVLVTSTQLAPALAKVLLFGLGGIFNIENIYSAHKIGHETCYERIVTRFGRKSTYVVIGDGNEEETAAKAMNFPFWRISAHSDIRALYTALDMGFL


Target: T1, Flag-tagged Eyes absent (Eya), wild type (Drosophila)
Test: co-IP; Flag-Eya (wild type or mutant) co-expressed with HA-Ey, Myc-So or HA-Dac in S2 cells; lysis in Pierce IP lysis buffer; IP with anti-Flag agarose beads 2 h at 4 °C; western blot with anti-HA, anti-Myc, anti-Flag

| binding | Molecule |
| --- | --- |
| binds | HA-tagged Eyeless (Ey) (from UniProt O18381 1-857) |
| binds | Myc-tagged Sine oculis (So) (protein, UniProt Q27350 1-416) MLQHPATDFYDLAAANAAAVLTARHTPPYSPTGLSGSVALHNNNNNNSSTSNNNNSTLDIMAHNGGGAGGGLHLNSSSNGGGGGGVVSGGGSGGRENLPSFGFTQEQVACVCEVLQQAGNIERLGRFLWSLPQCDKLQLNESVLKAKAVVAFHRGQYKELYRLLEHHHFSAQNHAKLQALWLKAHYVEAEKLRGRPLGAVGKYRVRRKFPLPRTIWDGEETSYCFKEKSRSVLRDWYSHNPYPSPREKRDLAEATGLTTTQVSNWFKNRRQRDRAAEHKDGSTDKQHLDSSSDSEMEGSMLPSQSAQHQQQQQQQQHSPGNSSGNNNGLHQQQLQHVAAEQGLQHHPHQPHPASNIANVAATKSSGGGGGGGVSAAAAAQMQMPPLTAAVAYSHLHSVMGAMPMTAMYDMGEYQHL |
